Measurements published in PMC10114295.
No constants are given. Whether binding was seen depends on the method and setting. In cells and extracts the contact can be indirect. Here binding means that the protein was enriched with, or labelled near, the bait; the list need not be complete.

Target: T1, ubiquitin ligase PDZRN3 (UniProt Q9UPQ7)
T1 sequence: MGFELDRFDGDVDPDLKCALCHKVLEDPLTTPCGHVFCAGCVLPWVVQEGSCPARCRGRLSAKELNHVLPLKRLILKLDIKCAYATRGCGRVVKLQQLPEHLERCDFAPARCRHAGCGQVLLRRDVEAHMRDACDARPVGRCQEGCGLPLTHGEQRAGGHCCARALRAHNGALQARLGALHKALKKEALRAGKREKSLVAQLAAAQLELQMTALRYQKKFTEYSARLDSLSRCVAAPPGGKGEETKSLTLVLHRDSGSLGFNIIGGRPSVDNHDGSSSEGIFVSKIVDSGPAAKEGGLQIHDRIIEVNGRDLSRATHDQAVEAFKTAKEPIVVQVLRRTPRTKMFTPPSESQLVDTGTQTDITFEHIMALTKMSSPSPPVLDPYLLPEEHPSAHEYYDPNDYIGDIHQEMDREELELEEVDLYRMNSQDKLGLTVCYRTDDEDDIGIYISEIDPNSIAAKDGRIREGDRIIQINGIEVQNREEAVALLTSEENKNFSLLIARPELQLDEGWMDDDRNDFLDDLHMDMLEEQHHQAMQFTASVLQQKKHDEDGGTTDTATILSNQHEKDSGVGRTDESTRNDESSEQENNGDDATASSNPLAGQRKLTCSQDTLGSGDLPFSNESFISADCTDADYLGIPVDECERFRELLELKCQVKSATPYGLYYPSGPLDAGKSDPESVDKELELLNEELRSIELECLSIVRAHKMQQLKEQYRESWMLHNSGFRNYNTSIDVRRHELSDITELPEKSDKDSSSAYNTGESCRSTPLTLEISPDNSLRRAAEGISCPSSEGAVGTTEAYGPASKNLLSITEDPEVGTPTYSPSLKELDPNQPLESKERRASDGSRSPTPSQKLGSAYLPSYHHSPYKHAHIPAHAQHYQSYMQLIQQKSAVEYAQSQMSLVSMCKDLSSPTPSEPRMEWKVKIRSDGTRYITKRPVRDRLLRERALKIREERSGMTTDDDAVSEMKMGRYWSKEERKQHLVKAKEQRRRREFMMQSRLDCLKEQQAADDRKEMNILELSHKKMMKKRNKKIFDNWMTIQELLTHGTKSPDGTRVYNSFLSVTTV
Assay: proximity labelling; BioID in brain endothelial cells (EC), PDZRN3 as bait

binding: binds
B1: Mutated in colon cancer protein (MCC) (protein, UniProt P23508 1-829)
chain: MNSGVAMKYGNDSSAELSELHSAALASLKGDIVELNKRLQQTERERDLLEKKLAKAQCEQSHLMREHEDVQERTTLRYEERITELHSVIAELNKKIDRLQGTTIREEDEYSELRSELSQSQHEVNEDSRSMDQDQTSVSIPENQSTMVTADMDNCSDLNSELQRVLTGLENVVCGRKKSSCSLSVAEVDKHIEQLTTASEHCDLAIKTVEEIEGVLGRDLYPNLAEERSRWEKELAGLREENESLTAMLCSKEEELNRTKATMNAIREERDRLRRRVRELQTRLQSVQATGPSSPGRLTSTNRPINPSTGELSTSSSSNDIPIAKIAERVKLSKTRSESSSSDRPVLGSEISSIGVSSSVAEHLAHSLQDCSNIQEIFQTLYSHGSAISESKIREFEVETERLNSRIEHLKSQNDLLTITLEECKSNAERMSMLVGKYESNATALRLALQYSEQCIEAYELLLALAESEQSLILGQFRAAGVGSSPGDQSGDENITQMLKRAHDCRKTAENAAKALLMKLDGSCGGAFAVAGCSVQPWESLSSNSHTSTTSSTASSCDTEFTKEDEQRLKDYIQQLKNDRAAVKLTMLELESIHIDPLSYDVKPRGDSQRLDLENAVLMQELMAMKEEMAELKAQLYLLEKEKKALELKLSTREAQEQAYLVHIEHLKSEVEEQKEQRMRSLSSTSSGSKDKPGKECADAASPALSLAELRTTCSENELAAEFTNAIRREKKLKARVQELVSALERLTKSSEIRHQQSAEFVNDLKRANSNLVAAYEKAKKKHQNKLKKLESQMMAMVERHETQVRMLKQRIALLEEENSRPHTNETSL
